The record followed here is paper PMC7819943, “Rice protein-binding microarrays: a tool to detect cis-acting elements near promoter regions in rice”.

By UniProt entry, the sequences of proteins in these tests, tags left out.
UniProt Q0JBA9, entry or part of it: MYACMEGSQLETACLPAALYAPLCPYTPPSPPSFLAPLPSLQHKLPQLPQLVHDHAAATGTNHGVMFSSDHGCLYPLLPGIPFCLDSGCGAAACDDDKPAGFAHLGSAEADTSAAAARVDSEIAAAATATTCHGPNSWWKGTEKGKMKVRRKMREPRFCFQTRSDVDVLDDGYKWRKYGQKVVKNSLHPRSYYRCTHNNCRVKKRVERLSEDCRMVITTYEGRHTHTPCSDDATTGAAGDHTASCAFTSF

The other results are listed elsewhere or left out.

The target of the test is OsWRKY34 (Oryza sativa, UniProt Q0JBA9 1-250). Description: protein-binding microarray (RPBM); PBS, 2% BSA, 51.3 ng/ul salmon testes DNA, 50 uM zinc acetate, 200 nM TF, 25 C, 1 h; high values mean tight binding. The conditions noted are these: protein: recombinant; tags: N-terminal polyhistidine and DsRed monomer fusion (pET32a); label: CyDye5-dUTP incorporated in the synthesized complementary strand; 3' TTTTT single-stranded linker to array surface; dsDNA, one strand shown. The procedure, abridged:
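The binding signal is fluorescence intensity per feature, in arbitrary units, read on an Axon 4000B scanner. Polyhistidine- and DsRed-tagged transcription factors (N-terminal fusions) from E. coli BL21-CodonPlus were purified on Ni–NTA and applied at 200 nM for 1 h at 25 °C to a double-stranded, BSA-blocked custom Agilent array in buffer with 50 µM zinc acetate.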
With “GCCATTTATTGCTCGTTCTTCACCTCTTCCGTCTTTGAGTCGGAGTCACCTAGTGCAG”, the binding signal was 10000 fluorescence intensity (a.u.).

For the sequence “CACTTGCTTTCACATATTTCCATCGTTAAATAGTACTGTACGGAGTCACCTAGTGCAG”, the binding signal was 8940 fluorescence intensity (a.u.).

“TTTGGGGCGCGGGTGGGTGGCTGGGTGCGCGTCGATCGTGCGGAGTCACCTAGTGCAG”: the binding signal was 10900 fluorescence intensity (a.u.).

In the case of “TCTTGTATGGAGTACTTATTTTTGTGTGATTAATTTTTTTCGGAGTCACCTAGTGCAG”, the binding signal was 8180 fluorescence intensity (a.u.).

As for “ACCATCTGCCATTCCTGTTGGTGCTAGCTTATCTAACATTCGGAGTCACCTAGTGCAG”, the binding signal was 8460 fluorescence intensity (a.u.).

Turning to “TCTTTCCTCTCTATCTCTCTTCGTTTTGTTTTTTCGCTTCCGGAGTCACCTAGTGCAG”, the binding signal was 11700 fluorescence intensity (a.u.).

Take “ATGTAAGTTAAGTTGTAACTCCTACTCTCTCTTTTCTTCTCGGAGTCACCTAGTGCAG”: the binding signal is 8110 fluorescence intensity (a.u.).

On to “AACGATGTGCACTCCTTCTCCGTCTCCTTCGTCTTCGCCACGGAGTCACCTAGTGCAG”, for which the binding signal is 8980 fluorescence intensity (a.u.).

With “CTCTTAAAATTTCTCTTTCTGCCTTTTCACATTTCTGGGGCGGAGTCACCTAGTGCAG”, the binding signal is 11600 fluorescence intensity (a.u.).

As to “CTCTATGCGCTGCCTCATCCATTTCTGATTTCTCCTTTCTCGGAGTCACCTAGTGCAG”, the binding signal was 12400 fluorescence intensity (a.u.).

Take “CACCACCGTCGTCGCCATGCTCCTTCCTTTCTTCGGCAACCGGAGTCACCTAGTGCAG”: the binding signal was 8060 fluorescence intensity (a.u.).

“AGTGGGCAGAGTTTATATTAATAGTGTTCACATATGTAGACGGAGTCACCTAGTGCAG”: the binding signal was 8150 fluorescence intensity (a.u.).

Regarding “GGCTATGCTACTACCCGCAGCGATTTTTTTACATTTTTTACGGAGTCACCTAGTGCAG”, the binding signal was 8820 fluorescence intensity (a.u.).

On to “CGGTGATTGATTTCAGATTTGAGTGGTTGATTACAACCTTCGGAGTCACCTAGTGCAG”, for which the binding signal was 9150 fluorescence intensity (a.u.).

Take “ATTACATGTTTTGCACTTCCTGTGTAATATTACTGGTTTTCGGAGTCACCTAGTGCAG”: the binding signal was 8920 fluorescence intensity (a.u.).

Consider “TATTAGCACTTCACCTGCTTCATTGTTTGTATTGACAAATCGGAGTCACCTAGTGCAG”, for which the binding signal is 9520 fluorescence intensity (a.u.).

Turning to “GTTGAGTTGGATGGGGAATTGAAGTTGAATTTTCTGGAGACGGAGTCACCTAGTGCAG”, the binding signal was 8200 fluorescence intensity (a.u.).

Take “ATCCCTCACTTGAACTTTTTTTCATTATCTCGAGCATAAGCGGAGTCACCTAGTGCAG”: the binding signal was 9150 fluorescence intensity (a.u.).

For the sequence “TTTTTTCTCTTCGCTGCTACCGAGTCTCTTCTGTTCTCTCCGGAGTCACCTAGTGCAG”, the binding signal was 13700 fluorescence intensity (a.u.).

“GGTCTTGCTAGTTGGCCATGTGAGAGTGAGACCGGGTCTCCGGAGTCACCTAGTGCAG”: the binding signal was 50700 fluorescence intensity (a.u.).

Consider “TTCCGACTGCACTGATCCGCCCGCCCTTCTCTCGCTCTGCCGGAGTCACCTAGTGCAG”, for which the binding signal was 10500 fluorescence intensity (a.u.).

On to “GGCCATCGCCATGTTCGTCTCCGTGCTGTCCTTCGTCGTCCGGAGTCACCTAGTGCAG”, for which the binding signal is 14400 fluorescence intensity (a.u.).

Turning to “GAACCACTCCGTCCTCTCCTCGCCCACCGCCGCCGCCGCCCGGAGTCACCTAGTGCAG”, the binding signal was 8960 fluorescence intensity (a.u.).

Regarding “AGAGGCGTTTTAGGTAGGAGTTCATTGTTGCCGGATTCCCCGGAGTCACCTAGTGCAG”, the binding signal is 8060 fluorescence intensity (a.u.).

For “AACCCTCCCGGCCCCGGAAATCCCACGAATCCGCAAACCACGGAGTCACCTAGTGCAG”, the binding signal is 8200 fluorescence intensity (a.u.).

With “TTTACAATTTTTTCATGCCCAAATTTTATGGGTTAAGCTACGGAGTCACCTAGTGCAG”, the binding signal was 8080 fluorescence intensity (a.u.).

“TATACTTATATGCATACAATTTTCATATATCTATATTCCTCGGAGTCACCTAGTGCAG”: the binding signal is 8290 fluorescence intensity (a.u.).

In the case of “CACCACCTGCTCCACATTTTCAGCTTTGCCTTCCTTGCCACGGAGTCACCTAGTGCAG”, the binding signal is 9560 fluorescence intensity (a.u.).

As for “GAATTCTCATGCATACACATTTCCTTTTTTTTCCCTTCAACGGAGTCACCTAGTGCAG”, the binding signal is 9470 fluorescence intensity (a.u.).

Consider “AGCTTATCCTCACTTAGTTAGTGCTTAAATGATTAATCTACGGAGTCACCTAGTGCAG”, for which the binding signal is 8780 fluorescence intensity (a.u.).

As for “GTTCATATAGTACGTACTTTTATTCGTTAGTATATATGACCGGAGTCACCTAGTGCAG”, the binding signal is 9410 fluorescence intensity (a.u.).

Turning to “GGAATTTCTCTTTCTACACAACTGTTTGCGTCAACATATACGGAGTCACCTAGTGCAG”, the binding signal is 9030 fluorescence intensity (a.u.).

“TGCACTTCTCCACTTCACTCCTCGTCTCTTGCCGTCTTTTCGGAGTCACCTAGTGCAG”: the binding signal was 13200 fluorescence intensity (a.u.).

Regarding “CAACCCGTTACTAGTTTGACCTCACCTGTGACAGGTGTTACGGAGTCACCTAGTGCAG”, the binding signal was 9670 fluorescence intensity (a.u.).

In the case of “TATAGTATGCACGGTGCGCGGGGTGGTATTTTTTGTGAAACGGAGTCACCTAGTGCAG”, the binding signal was 8630 fluorescence intensity (a.u.).

With “GCATTTCTTGTGTCCCAATCTGGGATGGACTTGATCTGACCGGAGTCACCTAGTGCAG”, the binding signal was 8380 fluorescence intensity (a.u.).

Turning to “GCCGCGACACGTTTTTGGCAACTTCTACGCGCGGCCGTCGCGGAGTCACCTAGTGCAG”, the binding signal was 9360 fluorescence intensity (a.u.).

As to “TTTGTTTTTTCCAGTTTGGCCAACCAAGACAGATATATTACGGAGTCACCTAGTGCAG”, the binding signal was 9660 fluorescence intensity (a.u.).

With “TTCGATGCCACACTAATCTTCCCATAACTGAATTGTTAATCGGAGTCACCTAGTGCAG”, the binding signal was 8750 fluorescence intensity (a.u.).

Turning to “GCTCGCCGCGTGCTCTCGTCATCCATCCGACCCACGCCCGCGGAGTCACCTAGTGCAG”, the binding signal is 11000 fluorescence intensity (a.u.).

As for “CTGTTATCGAGCAATTTCAACAAGGGCGGGGCCTTAATCTCGGAGTCACCTAGTGCAG”, the binding signal is 8870 fluorescence intensity (a.u.).

For “CTGCTTTTATAGTTTGGTGGGCTTTTCTTTGCTAGTGGGCCGGAGTCACCTAGTGCAG”, the binding signal was 10600 fluorescence intensity (a.u.).

On to “GCACCTCTGCATCTCTGCCATCTCCTTCCCCACCCCACCGCGGAGTCACCTAGTGCAG”, for which the binding signal is 9150 fluorescence intensity (a.u.).

Consider “TGAGTCCCTTCGCGCCACTTTTGCTTTGACCATGGTGAACCGGAGTCACCTAGTGCAG”, for which the binding signal is 10600 fluorescence intensity (a.u.).

On to “ATCCATGTTATCTCACTGCATTTCTTGTTCATGAATATAACGGAGTCACCTAGTGCAG”, for which the binding signal is 10700 fluorescence intensity (a.u.).

Take “ATGTATGCCCCTATGTAGTTTGCCCTCAGTTTTTATTTATCGGAGTCACCTAGTGCAG”: the binding signal was 10200 fluorescence intensity (a.u.).

On to “TGTTTCTATCTCGTATCTTCTCTTCCAAGCATGTATTTCCCGGAGTCACCTAGTGCAG”, for which the binding signal was 8650 fluorescence intensity (a.u.).

For “TATTGTTTATTGGGTGCTTGATTCTCGTGGCCAGGCCAACCGGAGTCACCTAGTGCAG”, the binding signal was 13000 fluorescence intensity (a.u.).

Consider “GTATCTCCTGCATGAGCACCAGGCTTTTATTCATTTTTGTCGGAGTCACCTAGTGCAG”, for which the binding signal was 8910 fluorescence intensity (a.u.).

Turning to “GCTCGCATTTCCACTCTCTCTATATCTTGTGTGGCGCACTCGGAGTCACCTAGTGCAG”, the binding signal is 9040 fluorescence intensity (a.u.).

As for “TTATGGCACGCTAAATAACCCGGCTGATCAGAGTGACGTCCGGAGTCACCTAGTGCAG”, the binding signal is 8020 fluorescence intensity (a.u.).

For “CGCCTCCGGCCTCCTCACGCACTGCCGCACCACGTCGCACCGGAGTCACCTAGTGCAG”, the binding signal is 9020 fluorescence intensity (a.u.).

Take “GTGACGGCGCCTCCAGCTCCATCGCTTGCCTTTCTCTTTGCGGAGTCACCTAGTGCAG”: the binding signal is 9270 fluorescence intensity (a.u.).

For the sequence “CGTCGTCTCGCCGCCACCGATCCCCGCGCCACCGCCGTCGCGGAGTCACCTAGTGCAG”, the binding signal was 9610 fluorescence intensity (a.u.).
